pIC50, pKd: −log10 of the molar value.
Tests used:
[1] = molecular target: T1, Tyrosine-protein kinase JAK3 (Homo sapiens, UniProt P52333); assay: Binding affinity to recombinant human JAK3 kinase domain by fluorescence polarization assay
T1 sequence (P52333 whole entry): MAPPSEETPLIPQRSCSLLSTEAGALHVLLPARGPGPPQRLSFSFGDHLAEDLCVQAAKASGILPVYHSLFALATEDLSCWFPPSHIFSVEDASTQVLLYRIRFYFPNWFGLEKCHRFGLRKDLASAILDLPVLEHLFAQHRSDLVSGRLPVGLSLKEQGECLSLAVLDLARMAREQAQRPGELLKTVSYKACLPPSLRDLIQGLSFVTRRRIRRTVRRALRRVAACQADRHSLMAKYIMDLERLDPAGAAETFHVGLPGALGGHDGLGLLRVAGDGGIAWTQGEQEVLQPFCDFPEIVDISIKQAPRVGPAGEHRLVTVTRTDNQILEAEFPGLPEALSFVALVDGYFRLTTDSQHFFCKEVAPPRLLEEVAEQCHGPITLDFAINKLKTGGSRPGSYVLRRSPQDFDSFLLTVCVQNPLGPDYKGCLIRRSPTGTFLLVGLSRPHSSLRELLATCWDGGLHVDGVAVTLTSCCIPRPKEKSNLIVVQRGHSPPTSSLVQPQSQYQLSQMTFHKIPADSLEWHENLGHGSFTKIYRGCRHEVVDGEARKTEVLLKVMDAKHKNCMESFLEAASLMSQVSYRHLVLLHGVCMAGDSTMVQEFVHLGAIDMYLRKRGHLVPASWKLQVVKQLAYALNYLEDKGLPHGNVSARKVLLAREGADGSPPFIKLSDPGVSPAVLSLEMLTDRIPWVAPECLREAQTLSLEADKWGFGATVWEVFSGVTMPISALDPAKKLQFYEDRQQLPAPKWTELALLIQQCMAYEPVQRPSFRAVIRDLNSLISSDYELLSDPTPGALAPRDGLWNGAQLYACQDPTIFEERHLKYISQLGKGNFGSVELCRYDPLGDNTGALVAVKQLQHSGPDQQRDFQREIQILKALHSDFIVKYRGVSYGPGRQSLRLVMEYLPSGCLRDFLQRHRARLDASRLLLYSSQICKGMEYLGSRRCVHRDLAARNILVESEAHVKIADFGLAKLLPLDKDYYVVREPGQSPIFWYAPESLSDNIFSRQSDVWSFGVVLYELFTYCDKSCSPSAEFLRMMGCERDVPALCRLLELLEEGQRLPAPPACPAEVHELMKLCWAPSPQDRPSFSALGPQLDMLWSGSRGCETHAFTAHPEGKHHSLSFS

[2] = molecular target: T1, Tyrosine-protein kinase JAK3; assay: Inhibition of recombinant human JAK3 assessed as inhibition of substrate phosphorylation measured every 5 mins for 30 mins by LANCE Ultra kinase assay

- pKd [1]: 8.48
- pIC50 [2]: 7.60
SMILES: CCS(=O)(=O)N1CCN(c2ccc(Nc3ncc(C(N)=O)c(NC4CC4)n3)cc2)CC1 [CERDULATINIB]

Reference: ChEMBL document CHEMBL5500392, “Functional and Structural Characterization of Clinical-Stage Janus Kinase 2 Inhibitors Identifies Determinants for Drug Selectivity” (J Med Chem, 2024)
